From patent publication US20230357210A1, “NITROGEN-CONTAINING CONDENSED HETEROCYCLIC COMPOUND HAVING AN OXIME GROUP, AGRICULTURAL OR HORTICULTURAL HERBICIDE COMPRISING THE COMPOUND, AND METHOD FOR USING THE COMPOUND OR THE HERBICIDE” (NIHON NOHYAKU CO., LTD., priority 2020, published 2023)
Some of these results come from one statement about several compounds together. At least one structure is not confirmed: it was looked up by name or label, or the drawing left a doubt.

Test system: Barnyard grass (Echinochloa crus-galli)
Assay: Test for post-emergence herbicidal effect against paddy weeds
Type: in vivo
Settings: active ingredient concentration of 10 ppm; drop treatment of hydroponically grown barnyard grass; 30° C., full light; evaluated six days after treatment vs non-treatment group

Compound | herbicidal effect against barnyard grass (score, degree of growth inhibition)
CCON=C(C)c1ccc(S(C)(=N)=O)c(-c2nc3cc(C(F)F)ccc3n2C)n1 (stereo not shown) [3-50, 1-(6-[5-(difluoromethyl)-1-methylbenzimidazol-2-yl]-5-(methylsulfonimidoyl)pyridin-2-yl)-n-ethoxy-ethanimine] | ≥ 3
CCO/N=C(\C)c1ccc(C(=O)OC)c(-c2nc3cc(SC(F)(F)F)ccc3n2C)n1 [2-105, 6-[(E)-N-ethoxy-C-methyl-carbonimidoyl]-2-[1-methyl-5-(trifluoromethylthio)benzimidazol-2-yl]pyridine-3-carboxylic acid methyl ester] | ≥ 3
CCO/N=C(\N)c1cnc(S(=O)(=O)NC)c(-c2nc3cc(C(F)(F)F)ccc3n2C)n1 [7-46, (Z)-N′-ethoxy-6-(1-methyl-5-(trifluoromethyl)-1H-benzo[d]imidazol-2-yl)-5-(N-methylsulfamoyl)pyrazine-2-carboximidamide] | ≥ 3
CCO/N=C/c1ccc(C(=O)OCC)c(-c2nc3cc(SC(F)(F)F)ccc3n2C)n1 [2-83, 6-[(E)-ethoxyiminomethyl]-2-[1-methyl-5-(trifluoromethylthio)benzimidazol-2-yl]pyridine-3-carboxylic acid ethyl ester] | ≥ 3
CCON=C(NC)c1ccc(S(C)(=O)=O)c(-c2nc3cc(C(F)(F)F)ccc3n2C)n1 [1-216, N′-ethoxy-N-methyl-5-methylsulfonyl-6-[1-methyl-5-(trifluor omethyl)benzimidazol-2-yl]pyridine-2-carboxamidine] | ≥ 3
CCO/N=C(\C)c1ccc(S(C)(=O)=O)c(-c2nc3cc(Br)ccc3n2C)n1 [1-87] | ≥ 3
CCO/N=C/c1ccc(S(C)(=O)=O)c(-c2nc3cc(SC(F)(F)F)ccc3n2C)n1 [1-256, (E)-(5-methylsulfonyl)-6-(1-methyl-5-(trifluoromethylthio)benzimidazol-2-yl]-2-pyridinecarboxaldehyde o-ethyl oxime] | ≥ 3
CCON=C(N)c1ccc(S(=O)(=O)NC)c(-c2nc3cc(C(F)(F)F)ccc3n2C)n1 [1-210, N′-ethoxy-5-methylsulfamoyl-6-[1-methyl-5-(trifluoromethyl)benzimidazol-2-yl)pyridine-2-carboxamidine] | ≥ 3
CCON=C(N)c1cc(C)c(SC)c(-c2nc3cc(C(F)(F)F)ccc3n2C)n1 [3-68, N′-ethoxy-4-methyl-5-methylthio-6-[1-methyl-5-(trifluoromethyl)benzimidazol-2-yl]pyridine-2-carboxamidine] | ≥ 3
CCON=C(N)c1cc(C)c(Cl)c(-c2nc3cc(C(F)(F)F)ccc3n2C)n1 [3-65, 5-chloro-N′-ethoxy-4-methyl-6-[1-methyl-5-(trifluoromethyl)benzimidazol-2-yl]pyridine-2-carboxamidine] | ≥ 3
CCO/N=C(\N)c1ccc(N2CCOC2=O)c(-c2nc3cc(C(F)(F)F)ccc3n2C)n1 [3-130, (Z)-N′-ethoxy-6-(1-methyl-5-(trifluoromethyl)-1H-Benzo[d]imidazol-2-yl)-5-(2-oxo-oxazolidin-3-yl)picolinimidamide] | ≥ 3
CCO/N=C/c1ccc(C(=O)OC)c(-c2nc3cc(SC(F)(F)F)ccc3n2C)n1 [2-82, 6-[(E)-ethoxyiminomethyl]-2-[1-methyl-5-(trifluoromethylthio)benzimidazol-2-yl]pyridine-3-carboxylic acid methyl ester] | ≥ 3
CCON=C(N)c1cc(C)c(S(C)(=O)=O)c(-c2nc3cc(C(F)(F)F)ccc3n2C)n1 [3-70, N′-ethoxy-4-methyl-5-methylsulfonyl-6-[1-methyl-5-(trifluor omethyl)benzimidazol-2-yl]pyridine-2-carboxamidine] | ≥ 3
CCON=C(N)c1ccc(S(C)(=O)=O)c(-c2nc3cc(C(F)(F)F)ccc3n2C)n1 [1-205, N′-ethoxy-5-methylsulfonyl-6-[1-methyl-5-(trifluoromethyl)benzimidazol-2-yl]pyridine-2-carboxamidine] | ≥ 3
CCON=C(N)c1ccc(C(=O)OC)c(-c2nc3cc(C(F)(F)F)ccc3n2C)n1 [2-123, N′-ethoxy-5-methoxycarbonyl-6-[1-methyl-5-(trifluoromethyl)benzimidazol-2-yl)pyridine-2-carboxamidine] | ≥ 3
CCON=C(c1ccc(S(C)(=O)=O)c(-c2nc3cc(C(F)(F)F)ccc3n2C)n1)N(C)C [1-220, N′-ethoxy-N,N-dimethyl-5-methylsulfonyl-6-[1-methyl-5-(trifluoromethyl)benzimidazol-2-yl)pyridine-2-carboxamidine] | ≥ 3
CCO/N=C/c1ccc(C(=O)N(C)C)c(-c2nc3cc(SC(F)(F)F)ccc3n2C)n1 [2-95, 6-[(E)-ethoxyiminomethyl]-N,N-dimethyl-2-[1-methyl-5-(trifluoromethylthio)benzimidazol-2-yl]pyridine-3-carboxamide] | ≥ 3
CCO/N=C(\N)c1ccc(S(=O)(=O)NC)c(-c2nc3cc(C(F)(F)F)ccc3n2C)c1 [4-46, (Z)-N′-ethoxy-3-(1-methyl-5-(trifluoromethyl)-1H-benzo[d]imidazol-2-yl)-4-(N-methylsulfamoyl)benzimidamide] | ≥ 3
CCO/N=C(\N)c1ncc(S(=O)(=O)NC)c(-c2nc3ccccc3n2C)n1 [8-6, (Z)-N′-ethoxy-4-(1-methyl-1H-benzo[d]imidazol-2-yl)-5-(N-methylsulfamoyl)pyrimidine-2-carboximidamide] | ≥ 3
